In article PMC9682698:

Biological target: GFP-PmACRE1 (Avr9/Cf-9 rapidly elicited protein 1 of Pinus massoniana) (Pinus massoniana)
Assay: affinity purification with mass spectrometry; leaf proteins of T3 homozygous PmACRE1-OX transgenic A. thaliana incubated with GFP-Trap agarose (ChromoTek); vector control line as control; SDS-PAGE, trypsin, LC-MS/MS (Orbitrap Fusion Lumos), Proteome Discoverer against UniProt

binding | Binder
binds | Myrosinase 2 (protein, UniProt Q9C5C2 29-547) KPEEEITCEENVPFTCSQTDRFNKQDFESDFIFGVASSAYQIEGGRGRGLNVWDGFTHRYPEKGGADLGNGDTTCDSYRTWQKDLDVMEELGVKGYRFSFAWSRILPKGKRSRGINEDGINYYSGLIDGLIARNITPFVTLFHWDLPQSLQDEYEGFLDRTIIDDFKDYADLCFERFGDRVKHWITINQLFTVPTRGYALGTDAPGRCSQWVDKRCYGGDSSTEPYIVAHNQLLAHATVVDLYRTRYKYQGGKIGPVMITRWFLPYDDTLESKQATWRAKEFFLGWFMEPLTKGKYPYIMRKLVGNRLPKFNSTEARLLKGSYDFLGLNYYVTQYAHALDPSPPEKLTAMTDSLANLTSLDANGQPPGPPFSKGSYYHPRGMLNVMEHFKTKYGDPLIYVTENGFSTSGGPIPFTEAFHDYNRIDYLCSHLCFLRKAIKEKRVNVKGYFVWSLGDNYEFCNGYTVRFGLSYVDFNNVTADRDLKASGLWYQSFLRDTTKNQDILRSSLPFKNGDRKSLT
binds | Geranylgeranyl diphosphate reductase, chloroplastic (protein, UniProt Q9CA67 44-467) AARATPKLSNRKLRVAVIGGGPAGGAAAETLAQGGIETILIERKMDNCKPCGGAIPLCMVGEFNLPLDIIDRRVTKMKMISPSNIAVDIGRTLKEHEYIGMVRREVLDAYLRERAEKSGATVINGLFLKMDHPENWDSPYTLHYTEYDGKTGATGTKKTMEVDAVIGADGANSRVAKSIDAGDYDYAIAFQERIRIPDEKMTYYEDLAEMYVGDDVSPDFYGWVFPKCDHVAVGTGTVTHKGDIKKFQLATRNRAKDKILGGKIIRVEAHPIPEHPRPRRLSKRVALVGDAAGYVTKCSGEGIYFAAKSGRMCAEAIVEGSQNGKKMIDEGDLRKYLEKWDKTYLPTYRVLDVLQKVFYRSNPAREAFVEMCNDEYVQKMTFDSYLYKRVAPGSPLEDIKLAVNTIGSLVRANALRREIEKLSV
binds | Glycine-rich protein (protein, UniProt Q9LFX8 1-420) MAATASSEASEGPVMGLINKRLRALRKKYNRITQMEESISQGKTLNKEQEEVLRSKPAVVILIDELEKIRAPLSAAVTEEISLATQLNRASSDQTTASEQKEVTDIPQEVSGGDDGAKLEDLVNFLYFGSLFDVKSQNEFTSIMLTRTHERSCCLSYDYVTDDATDLLGDRDLDSISQLWSLMVSRPVDSSLSHKNALERCVEHAKLWLANSEQPIESNCNTSYAALREKLKKIMASDYFTTTPEMKAPVDVAAAAGNYTSYQVPVDVEASGHYQQKEEDASNSKEVESVVNDQSQQDEHQKVELVTEGEVVHGQQEQGYTQVGGAENAKRDYVPRGSYQNQRGRRGARRGGGGYQNGRGGRGGGGGYQNGRYESYDQSGGNGYQRNYYNNRGRGRGGGGGGGNGHSYNNYQDPNVAVAS

No constants are given. Whether binding was seen depends on the method and setting. In cells and extracts the contact can be indirect. These calls come from enrichment with a bait or labelling near it, and not all partners need be listed.
